# Experimental data reported in the supplement of paper PMC3334620.
# The full ranking holds about 33,000 sequences; the median of “E-score (-0.5 to 0.5)” is about -0.015, and the highest 2% start at about 0.3. This is one part of the list.
# Target: T1, Abf1 (UniProt P14164)
# T1 sequence: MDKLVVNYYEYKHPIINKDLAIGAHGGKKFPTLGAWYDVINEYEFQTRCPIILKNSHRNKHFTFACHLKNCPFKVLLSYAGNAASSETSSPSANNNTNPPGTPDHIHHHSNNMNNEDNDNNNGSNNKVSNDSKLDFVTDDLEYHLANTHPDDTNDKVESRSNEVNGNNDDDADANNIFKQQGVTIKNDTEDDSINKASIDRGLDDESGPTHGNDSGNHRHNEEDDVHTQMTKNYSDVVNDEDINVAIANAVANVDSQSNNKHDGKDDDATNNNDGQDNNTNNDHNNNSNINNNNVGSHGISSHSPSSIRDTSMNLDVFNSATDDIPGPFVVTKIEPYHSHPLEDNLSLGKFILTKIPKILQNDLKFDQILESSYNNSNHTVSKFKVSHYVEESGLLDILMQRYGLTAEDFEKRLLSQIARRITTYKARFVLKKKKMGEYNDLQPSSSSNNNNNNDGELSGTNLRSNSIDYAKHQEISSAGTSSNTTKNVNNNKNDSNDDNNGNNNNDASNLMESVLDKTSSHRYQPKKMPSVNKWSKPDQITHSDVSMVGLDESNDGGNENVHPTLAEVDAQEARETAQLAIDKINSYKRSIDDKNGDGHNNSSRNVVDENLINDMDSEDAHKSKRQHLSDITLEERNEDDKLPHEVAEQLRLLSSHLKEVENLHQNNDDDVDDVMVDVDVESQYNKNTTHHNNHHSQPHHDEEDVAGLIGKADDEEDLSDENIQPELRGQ
# Assay: PBM E-score (8-mer binding enrichment) (E-score (-0.5 to 0.5)); higher = stronger / more preferred TF binding
# Conditions: protein concentration: 200 nM; construct: GST-full length
# Protocol: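 Universal 'all 10-mer' protein binding microarrays (Agilent AMADID 015681) probed with GST-tagged S. cerevisiae TFs (full-length or DBD) made by in vitro transcription/translation (PURExpress), about 100-200 nM. Bound TF was detected with fluorescent anti-GST. Each ungapped 8-mer (which stands for itself and its reverse complement) is scored by the PBM enrichment score (E-score), a modified Wilcoxon-Mann-Whitney statistic from -0.5 to +0.5, computed with the Universal PBM Analysis Suite. Scale: above 0.35 generally sequence-specific binding.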
row,Sequence,PBM E-score
1,CATACACA,-0.0659
2,AATTAAAA,0.00186
3,CGAATGGA,0.0823
4,TGTTTTAA,0.167
5,CCTCGGTC,-0.201
6,CATTAGAG,0.0163
7,CTTAGAAC,0.0471
8,AGACTCAA,-0.25
9,CTAAAACA,-0.052
10,AATGAATG,0.215
11,TACACTCA,0.0706
12,GGGGCGGA,-0.31
13,ATGTCGAA,0.00217
14,CATCCGGA,-0.148
15,ACCCACCA,-0.174
16,GCTCGTGA,0.0759
17,ACCACGAT,0.248
18,CTCTAGTA,0.00811
19,AATTCTTC,-0.00622
20,AGTAGTCC,0.0148
21,CATTCTGG,-0.0199
22,CTGAAGGA,-0.118
23,AAGTGGCG,-0.0322
24,CTCTAACA,0.0368

row,Sequence,PBM E-score
1,CGATATGC,0.214
2,CATTACAC,0.0501
3,GGTTCTAA,0.174
4,CAGTTTGG,-0.166
5,GCGTGAGC,-0.00153
6,GTCCACCA,-0.0958
7,CCTCTTTC,-0.314
8,CCCTTGAA,-0.102
9,ATCCACCG,0.168
10,ACCGCTAT,-0.167
11,TAAGGAGA,-0.199
12,CGTGGTAA,0.149
13,ATGTTTCG,0.0869
14,ATTTGTGC,-0.0752
15,CCACCTGG,-0.305
16,GCAATGCA,-0.101
17,AGAGCCTG,-0.203
18,AGTCAGAC,-0.0641
19,GAAAATGC,-0.00051
20,CCTATCAG,-0.22
21,CAGATACC,-0.026
22,AGCCGATC,-0.159
23,ATCAACGG,0.288
24,ACTGGTTG,-0.0643

# An excerpt of these results, with tabs.
row	Sequence	PBM E-score
17	AGAGCCTG	-0.203
18	AGTCAGAC	-0.0641
23	ATCAACGG	0.288

# Additional entries.

row,Sequence,PBM E-score
1,GCCGGGCA,-0.283
2,AGAGATAG,0.037
3,ATACTTGA,-0.0426
4,GCCAGCGC,-0.278
5,AACCCCTA,-0.235
6,TCTAAGAA,0.155
7,ACAATTAC,0.13
8,AGACCGCG,-0.0334
9,ACTCGTAG,0.16
10,CAGACTGC,-0.188
11,GTGAATGA,0.15
12,AAGGTACG,0.105
13,ACTTTGGG,-0.11
14,AATACGAC,0.278
15,AACATTCA,-0.0877
16,GGCGGCCC,-0.231
17,CCATTAGG,-0.215
18,GTCGTTGA,0.327
19,CGAACGAG,0.112
20,CGAGAGAG,-0.124
21,CCGGATAC,-0.0452
22,AATACATC,-0.0864
23,GGCCATAA,-0.196
24,AGCGGCTC,-0.159

row,Sequence,PBM E-score
1,AATCTGGA,-0.14
2,ATACCCCA,0.0583
3,CTTTCTAA,0.0834
4,ACTTACTA,0.0901
5,CGACTCAG,-0.0467
6,AAATCCCT,-0.162
7,ACCCCACC,0.125
8,CAAGATCA,0.16
9,AGGATCAA,0.0888
10,ATAATCTG,-0.105
11,CCTATGAA,-0.165
12,GGATACAA,0.161
13,CAGCCCCA,-0.178
14,GCAAGGTA,-0.0878
15,CAAAGGCG,0.0207
16,ATTGTGAA,0.0833
17,AGACATTA,-0.0164
18,GAGTCTCA,-0.156
19,TGGGGACA,-0.172
20,CGGACCGA,-0.0781
21,CCTTAAAC,-0.0102
22,CATTATTA,0.247
